Values joined by “and” are separate entries in the source; they are usually repeats but may differ in a detail not shown here. Equal values may be shown once. The campaign covered roughly 340,000 compounds. About 6,200 (1.8%) were called active. The shares of active, inactive and inconclusive entries below differ from those in the screen. The call rests on the fitted dose curve; in most records, active means well fitted activation curve with a large enough effect; inconclusive means small, poorly fitted or top-dose-only effect; inactive means no such curve, though single readings can be large or run the other way. A potency beside an inconclusive call is a rough fit, not a confirmed value.
Experiment: A quantitative high throughput screen for small molecules that induce DNA re-replication in SW480 colon adenocarcinoma cells. Further: nearly all actives have a fitted effect of over 55% in size. On re-replication activation: % of control where 0% means no effect.
Conditions: Hoechst DNA content imaging, 48 h; re-replication activation: at 46.1 µM (top of the series) unless noted
Method in brief: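 Per well, 250 cells were exposed to pinned compound for 48 hr. Nuclear DNA was visualised with Hoechst (40 min, 37 C) and total object intensity recorded by fluorescence scanning.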
Potency means the concentration at half of the fitted maximal effect.

Structure (SMILES) | re-replication activation | Potency
CC(=O)Nc1ccc(C=NNc2ccc(S(=O)(=O)Nc3ccccc3C(=O)O)cc2[N+](=O)[O-])cc1 | inactive: -3.22% | 
Cc1nc(SCc2nc3c(F)cccc3[nH]2)c2oc3ccccc3c2n1 | inactive: 0.302% | 
OC(C#Cc1ccccc1)(c1ccccc1)c1ccccc1 |  | inconclusive: 29.1 µM [activator, single point]
CCCN(CCC)C(=S)NC(=O)c1ccc(Cl)cc1Cl |  | inconclusive: 29.1 µM [activator, single point]
O=C(CSc1ccc2c(c1)OCCO2)Nc1ccc(Br)cc1 | inactive: -3.79% | 
Cc1cc(C)c(CSc2nnnn2-c2ccc(C(=O)O)cc2)c(C)c1 |  | inconclusive: 28.2 µM [activator, single point]
CCN(C(=O)CSc1nc2ccc([N+](=O)[O-])cc2s1)C1CCS(=O)(=O)C1 (stereo not drawn) | inactive: 5.94% | 
O=C(Nc1nnc(-c2ccccc2Cl)o1)c1ccc(S(=O)(=O)N2CCCCCC2)cc1 |  | inconclusive: 23.1 µM [activator, partial curve, poor fit]
CC(C)C(=O)N1CCN(c2ccc(NC(=S)NC(=O)c3cc4ccccc4o3)cc2)CC1 |  | inconclusive: 23.1 µM [activator, single point]
O=S(=O)(NCC(c1ccccc1)N1CCNCC1)c1ccc(Cl)cc1 (stereo not drawn) |  | inconclusive: 18.4 µM [activator, single point]
CN(C(=O)c1ccc(NC(=O)C2CCCN(C(=O)OC(C)(C)C)C2)cc1)C1CCC1 (stereo not drawn) |  | inconclusive: 29.1 µM [activator, single point]
O=C(N/N=C/c1ccc[nH]1)c1ccccc1O |  | inconclusive: 11.6 µM [activator, partial curve, poor fit]
CN(NC(=O)c1ccc(Cl)cc1)c1ncc(C(F)(F)F)cc1Cl | inactive: -16.5% | 
CC(C)C(C(=O)Nc1ccc(S(N)(=O)=O)cc1)N1C(=O)c2ccccc2C1=O (stereo not drawn) | inactive: -4.15% | 
O=C(NCc1ccc(Cl)cc1)C1CCN(S(=O)(=O)c2cccc3nonc23)CC1 |  | inconclusive: 18.4 µM [activator, partial curve, poor fit]
O=C(COc1ccc(Cl)cc1)NNC(=O)c1ccc(=O)[nH]c1 | inactive: -1.14% | 
COc1ccc(-c2nc(CSCC(=O)N3CCc4ccccc43)c(C)o2)cc1OC | inactive: -1.23% | 
CC(=O)C(/C=N/c1ncc(C(F)(F)F)cc1Cl)=C(\C)O |  | inconclusive: 0.1 µM [activator, partial curve, poor fit]
CN(CCOc1ccccc1)C(=O)C1CCC(=O)N(CCc2ccc(Cl)cc2)C1 (stereo not drawn) | inactive: -3.59% | 
CCOc1cc(/C=N\Nc2nc(Nc3ccccc3)nc(N3CCOCC3)n2)ccc1OC(=O)c1ccco1 |  | inconclusive: 1.84 µM [activator, full curve, poor fit]
O=[N+]([O-])c1ccc(Sc2ccccn2)nc1 | inactive: -4.91% | 
CCN(CC)CCNC(=O)CCc1c(C)nc2c(c(C)nn2-c2ccc(C)cc2)c1C |  | inconclusive: 29.1 µM [activator, single point]
Oc1ccc(/C=N/N=C(c2ccccc2)c2ccccc2)c(O)c1O | inactive: -2.09% | 

Structure (SMILES) | re-replication activation | Potency
Cc1cc(NC(=O)CCNS(=O)(=O)c2cc(Br)cnc2N)ccc1Br | inactive: 7.84% | 
CCCN1C(=O)c2cc(C(=O)Nc3cccc(C(C)=O)c3)ccc2C1Nc1cccc(C(C)=O)c1 (stereo not drawn) | inactive: 4.56% | 
COc1cc(CCC(=O)Oc2ccc(C(C)=O)cc2)cc(OC)c1OC |  | inconclusive: 29.1 µM [activator, single point]
N#Cc1c(C(F)(F)F)cc(-c2ccccc2)nc1SCCN1CCOCC1 |  | inconclusive: 23.1 µM [activator, single point]
CCN1C(=O)C(CC(=O)Nc2ccccc2Cl)N(NC(=O)c2cccc(F)c2)C1=S (stereo not drawn) |  | inconclusive: 29.1 µM [activator, partial curve, poor fit]
COC1=CC(=O)c2ccccc2C1=O |  | inconclusive: 6.51 µM [activator, partial curve, poor fit]
CC(=O)[C@@]1(O)C(C)CC2C3C=C(C)C4=Cc5c(cnn5-c5ccccc5)C[C@]4(C)C3C(O)C[C@@]21C (stereo partly drawn) |  | active: 8.2 µM
CCOc1ccc(NC2=CC(=O)C(=O)c3ccccc32)cc1 |  | active: 13 µM
O=C(Nc1ccc(F)cc1)NC1(C(=O)NCc2ccc3c(c2)OCO3)CCCCC1 | inactive: 0.164% | 
O=C(NCC1CCN(C(=O)c2c(F)c(F)c(F)c(F)c2F)CC1)c1c(F)c(F)c(F)c(F)c1F | inactive: 6.52% | 
Cc1ccc(S(=O)(=O)N2CCC(C(=O)N[C@H](C(=O)NCC3CCCO3)C(C)C)CC2)cc1 (stereo partly drawn) |  | inconclusive: 6.51 µM [activator, partial curve, poor fit]
COC(=O)Cn1cnc2c(cnn2-c2ccccc2)c1=O |  | inconclusive: 0.0517 µM [activator, full curve, poor fit]
Cc1ccc(S(=O)(=O)n2ccc(-c3cccc(OCc4c(F)cccc4Cl)c3)n2)cc1 |  | inconclusive: 29.1 µM [activator, partial curve, poor fit]
O=c1c2ccccc2nc(N/N=C/c2c(O)ccc3ccccc23)n1O |  | inconclusive: 2.59 µM [activator, full curve]
c1cncc(N=c2scc(-c3cccc4ccccc34)n2CCCn2ccnc2)c1 | inactive: 2.04% | 
C[C@H](CO)N1C[C@H](C)[C@@H](CN(C)Cc2ccc(-c3ccccc3)cc2)Oc2c(NS(=O)(=O)c3ccccc3)cccc2C1=O |  | inconclusive: 29.1 µM [activator, single point]
CCC1CCC/C1=N\NC(=O)c1ccoc1C (stereo not drawn) | inactive: -5.59% | 
Cc1ccc(S(=O)(=O)N2CCN(C(=O)c3cccs3)CC2)c(C)c1 |  | active: 4.11 µM
O=C(/C=C/c1ccccc1)c1cc(Br)ccc(=O)c1O |  | inconclusive: 5.8 µM [activator, partial curve]
COc1ccc2sc(-c3ccccc3OC)c(-c3ccc(OCCN(C)C)cc3)c2c1 |  | inconclusive: 29.1 µM [activator, single point]
COCCNc1nnc(SC(C)C(=O)Nc2ccc(-c3nc4ccc(C)cc4s3)cc2)s1 (stereo not drawn) |  | inconclusive: 29.1 µM [activator, single point]
COc1ccc(O)c(C(=O)c2cc(SCC(=O)O)c3nc4sc5c(c4c(=O)n3c2)CCCC5)c1 | inactive: 6.23% | 
Cc1nn(Cc2ccccc2)c2c1C(c1ccccc1)C(C#N)=C(N)O2 (stereo not drawn) |  | inconclusive: 2.31 µM [activator, full curve, poor fit]

Structure (SMILES) | re-replication activation | Potency
COc1ccc(C(=O)C(CCC(CNC(C)(C)C)C(=O)c2ccc(OC)cc2)CNC(C)(C)C)cc1 (stereo not drawn) |  | active: 2.91 µM
COc1cc(OC)c(C(=O)OCC(=O)Nc2nnc(-c3ccccc3)o2)cc1OC | inactive: -14.5% | 
CC(C)c1cc(C(C)C)c(S(=O)(=O)N2c3ccccc3[C@@]3(Br)C[C@H]4C(=O)N[C@@H](Cc5ccccc5)C(=O)N4[C@@H]23)c(C(C)C)c1 |  | inconclusive: 0.0651 µM [activator, partial curve, poor fit]
COc1ccc(CCNCc2csc3nc4ccccc4n23)cc1OC |  | inconclusive: 23.1 µM [activator, partial curve, poor fit]
CC(C)(C)c1nnc(N/N=C/c2ccccc2)n(N)c1=O |  | inconclusive: 4.11 µM [activator, full curve, poor fit]
CCN(CC)c1ccc(/C=N/NC(=O)C2CC2)cc1 |  | inconclusive: 10.3 µM [activator, partial curve]
O=C(c1cc2cc(F)ccc2[nH]1)N1CCN(Cc2ccc3c(c2)OCO3)CC1 |  | inconclusive: 8.2 µM [activator, partial curve, poor fit]
O=C(NNS(=O)(=O)c1ccccc1[N+](=O)[O-])c1cc2ccccc2cc1O |  | inconclusive: 16.4 µM [activator, single point]
Cc1ccc(Sc2ccc(NC(=O)CCl)cc2)c(C)c1 |  | inconclusive: 20.6 µM [activator, single point]
CC(C)(C)c1ccc(S(=O)(=O)/N=C2\C=C(NS(=O)(=O)c3ccccc3)C(=O)c3ccccc32)cc1 |  | inconclusive: 29.1 µM [activator, single point]
Cc1cc(C)n2nc(C(=O)OCCOc3ccc(Br)cc3)nc2n1 |  | inconclusive: 0.146 µM [activator, full curve, poor fit]
O=c1cc(-c2ccccc2)[nH]c2cc(F)ccc12 |  | active: 0.92 µM
Cc1cc(Cl)cc(C)c1OCCCCN1CCOCC1 | inactive: 0.292% | 
COc1ccccc1NCC(=O)N/N=C/c1c(O)ccc2ccccc12 |  | active: 3.26 µM
O=C(COc1ccc(F)cc1Cl)Nc1cccc(S(=O)(=O)N2CCCCCC2)c1 | inactive: 17.7% | 
N#CC1=C(N)C(C#N)(C#N)[C@H](c2ccncc2)[C@H]2CN(C(=O)OCc3ccccc3)CC=C12 |  | inconclusive: 20.6 µM [activator, single point]
CCOC(=O)[C@@H]1[C@H]2COc3ccc(Br)cc3[C@@H]2N2C(=O)N(c3cccc(Cl)c3)C(=O)[C@]12C |  | inconclusive: 6.51 µM [activator, single point]
CCOC(=O)c1ccccc1NC(=S)N1CCN(C(=O)c2ccco2)CC1 | inactive: -1% | 
CC(C(=O)Nc1ccc(C(N)=O)cc1)N1C(=O)c2ccccc2S1(=O)=O (stereo not drawn) | inactive: -316% | 
CN1CCC(=C2c3ccccc3Sc3ccccc32)CC1 |  | inconclusive: 26.6 µM [activator, partial curve] and inconclusive: 18.4 µM [activator, single point]
COC(=O)c1sccc1S(=O)(=O)NCc1ccc(S(N)(=O)=O)cc1 | inactive: -4.87% | 
O=C(c1cc2ccccc2oc1=O)N(c1ccccc1)C1C=CS(=O)(=O)C1 (stereo not drawn) | inconclusive: 56.2% [activator] | 

Structures above containing a cyano group, in the order listed:
Structure (SMILES) | re-replication activation | Potency
N#Cc1c(C(F)(F)F)cc(-c2ccccc2)nc1SCCN1CCOCC1 |  | inconclusive: 23.1 µM [activator, single point]
Cc1nn(Cc2ccccc2)c2c1C(c1ccccc1)C(C#N)=C(N)O2 (stereo not drawn) |  | inconclusive: 2.31 µM [activator, full curve, poor fit]
N#CC1=C(N)C(C#N)(C#N)[C@H](c2ccncc2)[C@H]2CN(C(=O)OCc3ccccc3)CC=C12 |  | inconclusive: 20.6 µM [activator, single point]
